Measurements reported in PubChem BioAssay AID743121 (NCATS, 2013).

Purpose: 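Knock-downs that sensitise breast cancer cells to camptothecin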 (primary screen)
Cell system: MDA-MB-231 cells, a human breast cancer line
Reagents: single siRNA against human genes, 20 nM siRNA (0.8 pmol per well)
Timing: 120 h (drug added 48 h after transfection, read 72 h later)
Conditions: camptothecin 20 nM (about EC30) for 72 h; vehicle 0.1% DMSO in parallel plates
Measurement: 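CellTiter-Glo ATP signal, scaled to control siRNA as percent viability; sensitisation given as log2 of untreated divided by camptothecin-treated viability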
Scale: log2 vehicle/camptothecin viability: higher = stronger sensitisation to camptothecin; viability with camptothecin: higher = more viable cells
Units: viability with camptothecin in % of control
Active means: 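Active genes have an RSA gene-level p-value below 0.001, computed from the ratios of their separate siRNAs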
Shown is a random part of about 26,000 reagents. 167 of them (0.63%) count as active. 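Calls are per gene from RSA p-values that are not deposited; an individual active-marked siRNA can sensitise only weakly.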 The numbers tell different reagents against one gene apart. Further read-outs or replicates are left out here. Reagent sequences are not shown.

PFKFB2 #1: log2 vehicle/camptothecin viability = -0.475; viability with camptothecin = 79; Outcome = inactive
PFKFB2 #2: log2 vehicle/camptothecin viability = -0.161; viability with camptothecin = 82.3; Outcome = inactive
PFKFB2 #3: log2 vehicle/camptothecin viability = 0.63; viability with camptothecin = 41.7; Outcome = inactive
PFKFB2 #4: log2 vehicle/camptothecin viability = 0.184; viability with camptothecin = 89.9; Outcome = inactive
SPSB4 #1: log2 vehicle/camptothecin viability = 0.154; viability with camptothecin = 97.2; Outcome = inactive
SPSB4 #2: log2 vehicle/camptothecin viability = -0.736; viability with camptothecin = 67.4; Outcome = inactive
SPSB4 #3: log2 vehicle/camptothecin viability = -0.426; viability with camptothecin = 103; Outcome = inactive
SPSB4 #4: log2 vehicle/camptothecin viability = -0.172; viability with camptothecin = 90; Outcome = inactive

A run of entries from the list above, as a working copy:
SPSB4 #1: log2 vehicle/camptothecin viability = 0.154; viability with camptothecin = 97.2; Outcome = inactive
SPSB4 #2: log2 vehicle/camptothecin viability = -0.736; viability with camptothecin = 67.4; Outcome = inactive
SPSB4 #3: log2 vehicle/camptothecin viability = -0.426; viability with camptothecin = 103; Outcome = inactive

The list goes on:
CASK #1: log2 vehicle/camptothecin viability = -0.107; viability with camptothecin = 74.4; Outcome = inactive
CASK #2: log2 vehicle/camptothecin viability = -0.129; viability with camptothecin = 68.5; Outcome = inactive
CASK #3: log2 vehicle/camptothecin viability = 0.166; viability with camptothecin = 66.5; Outcome = inactive
CASK #4: log2 vehicle/camptothecin viability = 0.896; viability with camptothecin = 4.15; Outcome = inactive
SLC7A14 #1: log2 vehicle/camptothecin viability = -0.243; viability with camptothecin = 39.3; Outcome = inactive
SLC7A14 #2: log2 vehicle/camptothecin viability = -0.361; viability with camptothecin = 62.8; Outcome = inactive
SLC7A14 #3: log2 vehicle/camptothecin viability = -0.337; viability with camptothecin = 97.4; Outcome = inactive
SLC7A14 #4: log2 vehicle/camptothecin viability = -0.392; viability with camptothecin = 74.1; Outcome = inactive
NMU #1: log2 vehicle/camptothecin viability = -0.141; viability with camptothecin = 81.6; Outcome = inactive
NMU #2: log2 vehicle/camptothecin viability = 0.233; viability with camptothecin = 87.5; Outcome = inactive
NMU #3: log2 vehicle/camptothecin viability = -0.112; viability with camptothecin = 82.6; Outcome = inactive
NMU #4: log2 vehicle/camptothecin viability = -0.37; viability with camptothecin = 35.2; Outcome = inactive
NUB1 #1: log2 vehicle/camptothecin viability = 0.172; viability with camptothecin = 44.8; Outcome = inactive
NUB1 #2: log2 vehicle/camptothecin viability = -0.242; viability with camptothecin = 99.4; Outcome = inactive
NUB1 #3: log2 vehicle/camptothecin viability = -0.0763; viability with camptothecin = 75.3; Outcome = inactive
NUB1 #4: log2 vehicle/camptothecin viability = 0.026; viability with camptothecin = 119; Outcome = inactive
